{"source": "PubChem BioAssay AID504467", "about": "(National Center for Advancing Translational Sciences (NCATS), 2011)", "note": "The campaign covered roughly 330,000 compounds. About 7,700 (2.3%) were called active. Inconclusive means that the source gave no clear call. Such entries were picked first, then a sample of the others. Calls follow the shape of the dose curve; as a rule, active = well fitted inhibition curve with a large enough effect; inconclusive = small, poorly fitted or top-dose-only effect, or effect the other way; inactive = flat fitted curve, though single readings scatter. Where the call is inconclusive, the potency comes from a doubtful curve fit. Potency is read from the fitted curve at half-maximal effect.", "data": [{"assay": "qHTS screen for small molecules that inhibit ELG1-dependent DNA repair in human embryonic kidney (HEK293T) cells expressing luciferase-tagged ELG1; also: nearly all actives have a fitted effect of over 55% in size", "settings": "HEK293T ELG1-luciferase reporter, luminescence, 16 h, DNA damage induced by 5-fluorouridine; series mostly up to 46.1 µM", "method_in_brief": "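Luminescence from the luciferase reporter, measured 30 min after ONE-Glo reagent at room temperature, was the read-out. Beforehand, 2,000 cells per well were exposed for 16 hr at 37 °C to 5-fluorouridine together with compound or vehicle.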", "values": [{"smiles": "COC(=O)c1c(C)nc(C)c(C(=O)OC)c1-c1cccs1", "Potency": "inactive"}, {"smiles": "Cc1occc1C(=O)Nc1cccc(Cl)c1Cl", "Potency": "inconclusive: 18.3 µM [activator, single point]"}, {"smiles": "COc1cc(Cl)c(C)cc1NC(=O)CCCN1C(=O)CCC1=O", "Potency": "inconclusive: 25.9 µM [activator, single point]"}, {"smiles": "COc1ccc(S(=O)(=O)N2CCN(C(=O)c3ccco3)CC2)c(C)c1C", "Potency": "inconclusive: 18.3 µM [inhibitor, partial curve]"}, {"smiles": "O=C(c1cc(COc2ccccc2)on1)N1CCCC(CN2CCOCC2)C1", "note": "(stereo not given)", "Potency": "inconclusive: 16.4 µM [activator, partial curve]"}, {"smiles": "O=C(NCc1ccco1)c1ccc2c(=O)n(Cc3ccco3)c(SCC(=O)N3CCCC3)nc2c1", "Potency": "inconclusive: 20.6 µM [inhibitor, single point]"}, {"smiles": "COc1ccc(-n2c(=O)c3ccccc3c3ccccc3c2=O)c(OC)c1", "Potency": "inconclusive: 16.4 µM [activator, single point]"}, {"smiles": "CCOC(=O)N1N=C(c2ccccc2)CC1(O)C(C)(F)F", "note": "(stereo not given)", "Potency": "inactive"}, {"smiles": "COc1ccc(NS(=O)(=O)c2ccc3oc(SCc4ccc(F)cc4)nc3c2)cc1", "Potency": "inactive"}, {"smiles": "CCOc1ccc(N(C)S(=O)(=O)c2ccc(-c3cc(C)no3)s2)cc1", "Potency": "inconclusive: 6.51 µM [inhibitor, single point]"}, {"smiles": "Brc1ccc(N=NNc2ccccc2)cc1", "Potency": "inconclusive: 12.6 µM [activator, partial curve]"}, {"smiles": "Cc1ccc(OCC(=O)NCCNC(=O)c2ccncc2)cc1C", "Potency": "inconclusive: 6.51 µM [inhibitor, single point]"}, {"smiles": "COc1ccc(Cn2c(=O)[nH]c3cc(C(=O)N4CCN(Cc5ccccc5)CC4)ccc3c2=O)cc1", "Potency": "inconclusive: 25.9 µM [inhibitor, single point]"}, {"smiles": "Cc1cc(C(=O)N2CCc3c([nH]c4ccccc34)C2c2cccc(Cl)c2)nn1C", "note": "(stereo not given)", "Potency": "inconclusive: 25.9 µM [inhibitor, single point]"}, {"smiles": "CCOC(=O)c1c(-c2cccs2)csc1NC(=O)C(C)(C)C", "Potency": "inconclusive: 20.6 µM [inhibitor, single point]"}, {"smiles": "O=C(N/N=C/c1ccc(Sc2nc3ccccc3s2)c([N+](=O)[O-])c1)c1ccccn1", "Potency": "inactive"}, {"smiles": "COc1cccc(C(=O)Nc2cccc(OC(C)=O)c2)c1", "Potency": "inconclusive: 3.26 µM [activator, partial curve, poor fit]"}, {"smiles": "CCCn1c(/C=C/c2ccccc2)nc2ccccc21", "Potency": "inconclusive: 4.61 µM [activator, partial curve]"}, {"smiles": "COc1ccc(C2C(C#N)=C(N)Oc3cccc(O)c32)cc1", "note": "(stereo not given)", "Potency": "inactive"}, {"smiles": "COc1ccc(C2Oc3ccccc3N2C(C)=O)cc1", "note": "(stereo not given)", "Potency": "inconclusive: 14.6 µM [activator, single point]"}, {"smiles": "Cc1ccc(-c2nc3ccccc3c(=O)n2N)cc1", "Potency": "inactive"}, {"smiles": "O=C1C2CC=CCC2C(=O)N1c1n[nH]c(-c2ccccc2)n1", "note": "(stereo not given)", "Potency": "inconclusive: 0.231 µM [activator, single point]"}, {"smiles": "Cc1ccc(N(CC(O)Cn2nc(C)cc2C)S(=O)(=O)c2ccc3ccccc3c2)cc1", "note": "(stereo not given)", "Potency": "inconclusive: 23.1 µM [inhibitor, partial curve, poor fit]"}, {"smiles": "O=c1c(-c2ccc(F)cc2)coc2cc(O)ccc12", "Potency": "inconclusive: 20.6 µM [activator, partial curve]"}, {"smiles": "COc1cccc(OC)c1C(=O)NC(=S)Nc1ccc(N2CCOCC2)c(Cl)c1", "Potency": "inconclusive: 23.1 µM [inhibitor, single point]"}, {"smiles": "CC(C)c1ccc(/C=C/C(=O)NNC(=O)c2cccnc2)cc1", "Potency": "inconclusive: 29.1 µM [activator, partial curve, poor fit]"}, {"smiles": "Cc1ccc(O)c(NC(=O)CCC2CCCCC2)c1", "Potency": "inconclusive: 6.51 µM [activator, partial curve]"}, {"smiles": "O=C(c1cc2nc(-c3ccco3)cc(C(F)(F)F)n2n1)N1CCc2ccccc2C1", "Potency": "inactive"}, {"smiles": "CC(C)[C@H](NC(=O)c1ccccc1)C(=O)OCc1nc2scc(-c3ccccc3)c2c(=O)[nH]1", "Potency": "inconclusive: 29.1 µM [inhibitor, single point]"}, {"smiles": "Cc1cccc(OCC(=O)Nc2ccc(N3CCN(C(=O)c4ccccc4)CC3)cc2)c1C", "Potency": "inactive"}, {"smiles": "Cc1cc(CNC(=O)c2ccc3oc(C(C)C)nc3c2)nn1C", "Potency": "inactive"}, {"smiles": "O=C(CN1CCCCC1)Nc1ccc(NC(=O)c2ccc(Cl)cc2)cc1Cl", "Potency": "inactive"}, {"smiles": "COc1cccc(CNC(=O)C2CCC(=O)N(C3CC3)C2)c1OC", "note": "(stereo not given)", "Potency": "inactive"}, {"smiles": "CCCCCNc1nc(-c2ccccc2)cs1", "Potency": "inconclusive: 16.4 µM [activator, partial curve]"}, {"smiles": "Cc1ccc(C(=O)C[n+]2ccc(Cc3ccccc3)cc2)cc1", "Potency": "active: 7.3 µM"}, {"smiles": "CC(=O)Nc1sc2c(c1C#N)CCCCC2", "Potency": "inconclusive: 16.4 µM [activator, single point]"}, {"smiles": "O=C(CNc1cccc(Cl)c1)c1ccc(Cl)cc1", "Potency": "inconclusive: 23.1 µM [activator, single point]"}, {"smiles": "CN(C(=O)CCCN1C(=O)c2ccccc2C1=O)C1CCCCC1", "Potency": "inconclusive: 16.4 µM [activator, single point]"}, {"smiles": "COc1cc(OC)cc(C(=O)NC(C(=O)N2CCc3ccccc3C2)C(C)C)c1", "note": "(stereo not given)", "Potency": "inconclusive: 32.6 µM [inhibitor, single point]"}, {"smiles": "Cc1ccc(C(=O)Oc2ccc(C(=O)COC(=O)C3CC(=O)N(Cc4ccco4)C3)cc2)cc1", "note": "(stereo not given)", "Potency": "inconclusive: 18.4 µM [activator, single point]"}, {"smiles": "CCOC(=O)CNC(=O)C(Cc1ccccc1)NC(=O)OCc1ccccc1", "note": "(stereo not given)", "Potency": "inactive"}, {"smiles": "CS(=O)(=O)N1N=C(c2ccc(Br)cc2)CC1c1cccs1", "note": "(stereo not given)", "Potency": "inconclusive: 18.4 µM [activator, partial curve]"}, {"smiles": "Cc1oc(-c2ccc(-c3ccccc3)cc2)nc1CN(CCO)C(C)C", "Potency": "inconclusive: 1.16 µM [activator, partial curve]"}, {"smiles": "Cc1ccccc1Nc1c([N+](=O)[O-])ccc2nonc12", "Potency": "inconclusive: 29.1 µM [activator, single point]"}, {"smiles": "COc1ccc(C)cc1NC(=O)C1CCCN(S(=O)(=O)c2ccc3c(c2)CCCN3C(C)=O)C1", "note": "(stereo not given)", "Potency": "inactive"}]}]}
